Results taken from article doi:10.1101/2023.10.26.564194.
Results are given in words; binding and its absence hold for the method and conditions named. For some of these results: Binding seen in cells or lysates may run through a third protein. Some entries that bind do so weakly or less than the wild type. For some of these results: Sequences can lack the tags named with a protein. One block for each binder: values may come before it.

By UniProt entry, the sequences of proteins in these tests, tags left out.
UniProt P04792: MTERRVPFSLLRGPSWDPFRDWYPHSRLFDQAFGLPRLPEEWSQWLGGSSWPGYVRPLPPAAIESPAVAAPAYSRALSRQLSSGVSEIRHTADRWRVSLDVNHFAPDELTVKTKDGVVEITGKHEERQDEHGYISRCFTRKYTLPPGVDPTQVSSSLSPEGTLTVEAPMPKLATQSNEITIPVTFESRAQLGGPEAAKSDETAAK
UniProt O60331: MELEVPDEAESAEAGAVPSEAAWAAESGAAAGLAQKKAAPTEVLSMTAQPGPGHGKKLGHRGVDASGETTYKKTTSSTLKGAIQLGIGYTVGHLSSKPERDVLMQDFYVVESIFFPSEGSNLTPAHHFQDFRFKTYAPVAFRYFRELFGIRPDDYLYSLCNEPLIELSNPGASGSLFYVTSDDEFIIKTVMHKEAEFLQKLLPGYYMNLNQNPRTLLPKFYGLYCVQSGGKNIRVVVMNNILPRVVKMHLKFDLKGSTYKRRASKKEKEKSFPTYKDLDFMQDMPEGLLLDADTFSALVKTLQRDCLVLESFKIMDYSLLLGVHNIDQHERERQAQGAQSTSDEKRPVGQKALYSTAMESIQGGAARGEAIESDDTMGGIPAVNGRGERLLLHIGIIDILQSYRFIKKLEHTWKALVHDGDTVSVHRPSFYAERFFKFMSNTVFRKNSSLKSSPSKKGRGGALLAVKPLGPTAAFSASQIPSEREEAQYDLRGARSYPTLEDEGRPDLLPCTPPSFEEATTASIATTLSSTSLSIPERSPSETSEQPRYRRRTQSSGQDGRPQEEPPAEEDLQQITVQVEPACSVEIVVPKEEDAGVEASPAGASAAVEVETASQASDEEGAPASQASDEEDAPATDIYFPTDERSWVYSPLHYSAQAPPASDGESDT

Columns and labels:
[1] = biological target: recombinant HSP27 (UniProt P04792); assay: pull-down
[2] = biological target: T1, recombinant αB-crystallin (UniProt P02511); assay: pull-down
T1 sequence: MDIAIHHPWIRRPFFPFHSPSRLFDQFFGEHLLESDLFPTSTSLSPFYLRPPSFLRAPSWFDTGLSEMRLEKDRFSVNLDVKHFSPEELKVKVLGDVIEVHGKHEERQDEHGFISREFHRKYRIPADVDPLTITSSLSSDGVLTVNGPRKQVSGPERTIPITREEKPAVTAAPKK

[3] = biological target: T2, nuclear factor erythroid 2-related factor 2 (NRF2), endogenous (human (endogenous in MDA-MB-231, HCT116, MCF7)) (UniProt Q16236); assay: proximity ligation
T2 sequence: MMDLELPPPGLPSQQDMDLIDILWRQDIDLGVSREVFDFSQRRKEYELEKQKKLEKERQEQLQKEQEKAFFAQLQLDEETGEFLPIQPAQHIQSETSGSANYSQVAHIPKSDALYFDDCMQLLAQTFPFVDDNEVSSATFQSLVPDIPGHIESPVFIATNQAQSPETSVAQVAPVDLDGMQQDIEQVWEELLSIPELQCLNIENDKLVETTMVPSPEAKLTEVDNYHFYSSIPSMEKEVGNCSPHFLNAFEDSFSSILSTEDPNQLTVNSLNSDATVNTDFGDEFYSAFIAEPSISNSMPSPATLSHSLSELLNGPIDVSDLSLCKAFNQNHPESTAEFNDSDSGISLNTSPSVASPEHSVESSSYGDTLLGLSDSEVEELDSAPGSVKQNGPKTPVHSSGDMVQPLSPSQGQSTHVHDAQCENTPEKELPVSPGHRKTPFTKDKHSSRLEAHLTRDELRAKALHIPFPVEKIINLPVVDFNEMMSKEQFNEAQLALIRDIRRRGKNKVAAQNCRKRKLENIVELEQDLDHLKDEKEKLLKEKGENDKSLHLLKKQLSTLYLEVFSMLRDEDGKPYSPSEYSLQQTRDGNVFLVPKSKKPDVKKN

[4] = biological target: T2, nuclear factor erythroid 2-related factor 2 (NRF2), endogenous (human (endogenous in MDA-MB-231, HCT116, MCF7)); assay: co-IP
[5] = biological target: type I phosphatidylinositol phosphate kinase γ (PIPKIγ), endogenous (human (endogenous in MDA-MB-231, HCT116)) (UniProt O60331); assay: proximity ligation
[6] = biological target: HSP27, endogenous (human (endogenous in MDA-MB-231, MCF7)) (UniProt P04792); assay: co-IP
[7] = biological target: type I phosphatidylinositol phosphate kinase γ (PIPKIγ), endogenous (human (endogenous in MDA-MB-231, HCT116)) (UniProt O60331); assay: co-IP

binding [1]: no binding | binding [2]: no binding
B1: recombinant His-Tag NRF2 truncation mutant Δ2-86 amino acids (Neh2 domain deleted) (domain or fragment, UniProt Q16236)
chain: MQPAQHIQSETSGSANYSQVAHIPKSDALYFDDCMQLLAQTFPFVDDNEVSSATFQSLVPDIPGHIESPVFIATNQAQSPETSVAQVAPVDLDGMQQDIEQVWEELLSIPELQCLNIENDKLVETTMVPSPEAKLTEVDNYHFYSSIPSMEKEVGNCSPHFLNAFEDSFSSILSTEDPNQLTVNSLNSDATVNTDFGDEFYSAFIAEPSISNSMPSPATLSHSLSELLNGPIDVSDLSLCKAFNQNHPESTAEFNDSDSGISLNTSPSVASPEHSVESSSYGDTLLGLSDSEVEELDSAPGSVKQNGPKTPVHSSGDMVQPLSPSQGQSTHVHDAQCENTPEKELPVSPGHRKTPFTKDKHSSRLEAHLTRDELRAKALHIPFPVEKIINLPVVDFNEMMSKEQFNEAQLALIRDIRRRGKNKVAAQNCRKRKLENIVELEQDLDHLKDEKEKLLKEKGENDKSLHLLKKQLSTLYLEVFSMLRDEDGKPYSPSEYSLQQTRDGNVFLVPKSKKPDVKKN

binding [3]: binds | binding [4]: binds
B2: αB-crystallin, endogenous (protein, UniProt P02511 1-175)
chain: T1 sequence

binding [5]: binds | binding [6]: binds | binding [7]: binds
B3: nuclear factor erythroid 2-related factor 2 (NRF2), endogenous (protein, UniProt Q16236 1-605)
chain: T2 sequence
